PubChem BioAssay AID1259308 – NCATS | 2017
The deposit covers about 59,000 reagents; below is a part drawn at random. In the full data, about 1,510 (2.6%) got an active call. 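Calls use total luciferase alone and ignore viability, so some active siRNAs may act by altering cell number.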 Unmarked entries are inactive. The numbers tell different reagents against one gene apart. Further read-outs or replicates are left out here. Reagent sequences are not shown.

Aim: 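Candidate targets for better recombinant protein yield in mammalian cells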 (primary screen)
Cell system: human HEK293 embryonic kidney cells stably expressing firefly luciferase (HEK-CMV-Luc2-Hygro)
Reagents: single siRNA against human genes, 0.8 pmol siRNA per well
Duration: 72 h
Measurement: 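Luciferase light (ONE-Glo) measured on one replicate plate set and viability (CellTiter-Glo) on the other, scaled to a negative control siRNA, with robust z-scores and luciferase per cell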
Scale: total luciferase, z-score: higher = more reporter protein produced
Hit rule: 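Active when the median/MAD z-score for overall luciferase is greater than 3; a gene was taken forward for validation with new siRNAs if at least two of its three siRNAs passed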
Meaning of the calls: active = raised luciferase; inactive = no rise

For ELFN2 #1, what does the deposit list?
total luciferase, z-score: -0.575

With ELFN2 #2, what was measured?
total luciferase, z-score: 1.26

Which result is listed for ELFN2 #3?
total luciferase, z-score: 0.119

How did the screen score CNTRL #1?
total luciferase, z-score: 0.235

With CNTRL #2, how do the results read?
total luciferase, z-score: 3.3 (active)

What did the screen give for CNTRL #3?
total luciferase, z-score: 0.546

Which result is listed for CIB2 #1?
total luciferase, z-score: 0.201

How did the screen score CIB2 #2?
total luciferase, z-score: -2.15

For CIB2 #3, what does the deposit list?
total luciferase, z-score: -1.26

What is on record for RHEBL1 #1?
total luciferase, z-score: -0.758

For RHEBL1 #2, what was measured?
total luciferase, z-score: 2.21

With RHEBL1 #3, what was measured?
total luciferase, z-score: 1.21

What is on record for CDC27P6 #1?
total luciferase, z-score: 0.308

Which result is listed for CDC27P6 #2?
total luciferase, z-score: 0.725

For CDC27P6 #3, what was measured?
total luciferase, z-score: -0.976

Active calls, among the entries above:
CNTRL #2 | total luciferase, z-score: 3.3 (active)

The listing continues.
For OR8G5 #1, how do the results read?
total luciferase, z-score: 0.415

What did the screen give for OR8G5 #2?
total luciferase, z-score: -0.935

With OR8G5 #3, what does the deposit list?
total luciferase, z-score: 0.00604

What did the screen give for RIC8B #1?
total luciferase, z-score: 0.0896

For RIC8B #2, what was measured?
total luciferase, z-score: -0.473

With RIC8B #3, what does the deposit list?
total luciferase, z-score: 0.625

What did the screen give for GPR137B #1?
total luciferase, z-score: 0.127

For GPR137B #2, how do the results read?
total luciferase, z-score: 2.04

How did the screen score GPR137B #3?
total luciferase, z-score: -0.295

What is on record for RUSF1 #1?
total luciferase, z-score: -1.1

With RUSF1 #2, what was measured?
total luciferase, z-score: -0.64

For RUSF1 #3, how do the results read?
total luciferase, z-score: 0.409

For SLC5A3 #1, what does the deposit list?
total luciferase, z-score: 0.919

What did the screen give for SLC5A3 #2?
total luciferase, z-score: -0.0232

For SLC5A3 #3, what does the deposit list?
total luciferase, z-score: -0.45

Which result is listed for UBE2D1 #1?
total luciferase, z-score: -0.197

What did the screen give for UBE2D1 #2?
total luciferase, z-score: 0.362

With UBE2D1 #3, how do the results read?
total luciferase, z-score: -0.368
